Test system: TGF-α immunoreactivity
Assay: Radioimmunoassay of TGF-α in cat anterior chamber fluid before and after touch injury to the corneal endothelium
Assay type: in vivo
Conditions: for Concentration of TGF-α in anterior chamber samples, mean: cat, RIA

**Q.** For “transforming growth factor alpha [TGF-α]”, which “Concentration of TGF-α in anterior chamber samples, mean” value (shortened to “Concentration of TGF-α”) (0 hr (prior to wounding)) is on record?
**A.** 6.83 ng/mL

**Q.** And the “Concentration of TGF-α” value (2 hr after touch injury)?
**A.** 97.44 ng/mL

**Q.** And the “Concentration of TGF-α” value (6 hr after touch injury)?
**A.** 63.28 ng/mL

**Q.** And the “TGF-α level relative to pre-injury level” value (24 hours after surgery)?
**A.** approximately 6 fold

**Q.** What about the “Concentration of TGF-α” value (24 hr after touch injury) of the same substance?
**A.** 35.46 ng/mL

**Q.** What about the “Increase of TGF-α concentration over pre-wounding level” value (two hours after the wounding) of the same substance?
**A.** approximately 16 fold

From US5310728A, “Method for treating corneal endothelial wounds” (Chiron Ophthalmics, Inc., priority 1992, dated 1994)
